Taken from: PubChem BioAssay AID1224828 (NIAID, 2016)
Assay: 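Knock-downs that increase or decrease LPS-induced p65 nuclear translocation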 (primary screen). Cell system: mouse RAW264.7 G9 macrophage reporter cells (GFP-p65, Tnf promoter-mCherry). Reagents: siRNA pool against mouse genes, 100 nM. Duration: 2 days siRNA transfection, then 40 min LPS before fixation. Treatment: LPS (Salmonella minnesota R595) at 10 ng/ml. Measured: 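Imaged p65 nuclear translocation ratio, normalised to the plate median, converted to robust z-scores and averaged across two replicates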. Direction: p65 translocation robust z-score: higher = more nuclear NF-kappaB p65 after LPS than the plate median; nuclear/cytoplasmic p65 ratio: higher = more nuclear NF-kappaB p65. Hit rule: 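Called active when z exceeds 3.3 or falls under -1.56 (median of Tlr4 controls), giving activity score of at least 50; no calls for control wells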. Calls: active = hit (p65 shift raised or lowered); inactive = no clear change.
This is one part, drawn at random, of about 17,000 reagents tested. 762 of all reagents (4.5%) were called active. 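Active calls include both raised and lowered p65 entry, mostly lowered; wells with fewer than 50 cells lack a z-score.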 The raw values are shown without normalisation. Reagents against one gene are numbered here.

| target gene | reagent no. | p65 translocation robust z-score | nuclear/cytoplasmic p65 ratio, rep 1 | nuclear/cytoplasmic p65 ratio, rep 2 | low cell count flag | activity call |
| --- | --- | --- | --- | --- | --- | --- |
| Atp6v0a1 (ATPase, H+ transporting, lysosomal V0 subunit A1) | 1 | -0.18 | 1.49 | 1.57 | enough cells to score | inactive |
| Kif2b (kinesin family member 2B) | 1 | -0.29 | 1.44 | 1.33 | enough cells to score | inactive |
| Myo1c (myosin IC) | 1 | 0.2 | 1.86 | 1.58 | enough cells to score | inactive |
| Homer2 (homer scaffolding protein 2) | 1 | 1.67 | 1.6 | 1.83 | enough cells to score | inactive |
| Akr1e1 (aldo-keto reductase family 1, member E1) | 1 | -1 | 1.49 | 1.45 | enough cells to score | inactive |
| Zfp13 (zinc finger protein 13) | 1 | -0.44 | 1.33 | 1.22 | enough cells to score | inactive |
| Pabir1 | 1 | – | 1.16 | 1.14 | fewer than 50 cells per well; well left out of scoring | inactive |
| Atp7a (ATPase, copper transporting, alpha polypeptide) | 1 | -0.59 | 1.59 | 1.46 | enough cells to score | inactive |
| Prkx (protein kinase, X-linked) | 1 | 0.93 | 1.82 | 1.51 | enough cells to score | inactive |
| Zdhhc9 (zinc finger, DHHC domain containing 9) | 1 | -1.89 | 1.13 | 1.06 | enough cells to score | active |
| Nr0b2 (nuclear receptor subfamily 0, group B, member 2) | 1 | -1.44 | 1.22 | 1.26 | enough cells to score | inactive |
| Riiad1 | 1 | – | 1.58 | 1.61 | fewer than 50 cells per well; well left out of scoring | inactive |
| A430093F15Rik (RIKEN cDNA A430093F15 gene) | 1 | -1.82 | 1.17 | 1.24 | enough cells to score | active |
| Tbpl2 (TATA box binding protein like 2) | 1 | -0.39 | 1.25 | 1.21 | enough cells to score | inactive |
| Arhgap15 (Rho GTPase activating protein 15) | 1 | -1.07 | 1.38 | 1.42 | enough cells to score | inactive |
| Ankrd34b (ankyrin repeat domain 34B) | 1 | -0.9 | 1.19 | 1.4 | enough cells to score | inactive |

A few values from above.
Entry for Tbpl2 (TATA box binding protein like 2) in “nuclear/cytoplasmic p65 ratio, rep 2”: 1.21
For “activity call”, Kif2b (kinesin family member 2B) reads inactive
Akr1e1 (aldo-keto reductase family 1, member E1), nuclear/cytoplasmic p65 ratio, rep 1: 1.49
Result of Atp6v0a1 (ATPase, H+ transporting, lysosomal V0 subunit A1) in “low cell count flag”: enough cells to score
For “activity call”, Prkx (protein kinase, X-linked) has inactive

The listing continues.
| target gene | reagent no. | p65 translocation robust z-score | nuclear/cytoplasmic p65 ratio, rep 1 | nuclear/cytoplasmic p65 ratio, rep 2 | low cell count flag | activity call |
| --- | --- | --- | --- | --- | --- | --- |
| Kpna6 (karyopherin subunit alpha 6) | 1 | 0.06 | 1.49 | 1.38 | enough cells to score | inactive |
| Efcab9 (EF-hand calcium binding domain 9) | 1 | 1.89 | 1.89 | 1.66 | enough cells to score | inactive |
| Sema6b | 1 | 0.55 | 1.58 | 1.68 | enough cells to score | inactive |
| Tas2r125 (taste receptor, type 2, member 125) | 1 | 0.41 | 1.58 | 1.63 | enough cells to score | inactive |
| Vamp5 (vesicle-associated membrane protein 5) | 1 | -0.31 | 1.5 | 1.69 | enough cells to score | inactive |
| Vamp5 (vesicle-associated membrane protein 5) | 2 | -0.21 | 1.25 | 1.2 | enough cells to score | inactive |
| Vmn2r26 (vomeronasal 2, receptor 26) | 1 | – | 1.11 | 0.99 | fewer than 50 cells per well; well left out of scoring | inactive |
| Rpl15 (ribosomal protein L15) | 1 | – | 1.76 | 1.33 | fewer than 50 cells per well; well left out of scoring | inactive |
| Tssc4 (tumor-suppressing subchromosomal transferable fragment 4) | 1 | -0.47 | 1.45 | 1.43 | enough cells to score | inactive |
| Nab2 (Ngfi-A binding protein 2) | 1 | -0.45 | 1.4 | 1.27 | enough cells to score | inactive |
| Mfsd6l (major facilitator superfamily domain containing 6-like) | 1 | -0.53 | 1.53 | 1.72 | enough cells to score | inactive |
| Irak1bp1 (interleukin-1 receptor-associated kinase 1 binding protein 1) | 1 | -0.36 | 1.54 | 1.35 | enough cells to score | inactive |
| Chn2 (chimerin 2) | 1 | -0.5 | 1.55 | 1.66 | enough cells to score | inactive |
| Ccz1 (CCZ1 vacuolar protein trafficking and biogenesis associated) | 1 | -1.74 | 1.2 | 1.42 | enough cells to score | active |
| Ascl3 (achaete-scute family bHLH transcription factor 3) | 1 | -0.23 | 1.49 | 1.56 | enough cells to score | inactive |
| Adam24 (ADAM metallopeptidase domain 24) | 1 | -0.76 | 1.4 | 1.66 | enough cells to score | inactive |
| Pmp22 (peripheral myelin protein 22) | 1 | -0.11 | 1.45 | 1.43 | enough cells to score | inactive |
| Jpt2 (Jupiter microtubule associated homolog 2) | 1 | -0.82 | 1.43 | 2.36 | enough cells to score | inactive |
| N4bp2l1 (NEDD4 binding protein 2-like 1) | 1 | 0.11 | 1.77 | 1.5 | enough cells to score | inactive |
| 9130230L23Rik (RIKEN cDNA 9130230L23 gene) | 1 | -0.02 | 1.45 | 1.52 | enough cells to score | inactive |
| Yipf4 (Yip1 domain family, member 4) | 1 | – | 1.49 | 1.23 | fewer than 50 cells per well; well left out of scoring | inactive |
| Vmn2r57 (vomeronasal 2, receptor 57) | 1 | 0.01 | 1.57 | 1.55 | enough cells to score | inactive |
| Or52e5 (olfactory receptor family 52 subfamily E member 5) | 1 | 0.08 | 1.4 | 1.28 | enough cells to score | inactive |
| Wdr31 (WD repeat domain 31) | 1 | 0.6 | 1.45 | 1.36 | enough cells to score | inactive |
